Data from PubChem BioAssay AID1508600 (Functional Genomics Laboratory (NCATS/FGL), 2020).
Out of some 53,000 sequences screened, about 3,700 (7%) were called active.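 Rule for the calls: active = gene knockdowns whose robust z-score for IL-1 alpha signal is at least 2 or at most -2, so actives lie on both sides; inactive = the rest.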 This is one part of the list.

Assay: Components of the Cytosolic LPS Sensing Pathway: Gene Identification via Genome-wide siRNA Screen;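 note: robust z of the log signal after scaling to non-targeting control siRNA wells of the plate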
Settings: RAW264.7 macrophages, IL-1a HTRF, actives lie on both sides, screened at 100 nM (by protocol), cells primed 5 h with Pam3CSK4 first
Procedure, shortened: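 Cells (RAW264.7, 1×10^4 per well) were transfected with siRNA at 100 nM and cultured 48h at 37 degrees C. Pam3CSK4 was added for 5 hours; LipidA transfection followed for 24 hour. IL-1a was then measured by HTRF.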

Question: With GGAUGCAUAUUUUAGAAGATT against Mrtfb as the sequence, how does the z-score read?
Answer: The z-score was inactive: 0.365.

Question: For GCAAACGGACACUUGGAAUTT against Hmx1, which z-score is on record?
Answer: Its z-score is inactive: -0.9.

Question: Which z-score does the source give for GGAUUUCUCCAUGAUGAGATT against Prss44 here?
Answer: Its z-score is inactive: -1.6.

Question: Which z-score does the source give for GGCUUUACGAGGAAAAAGGTT against Pex1 here?
Answer: Its z-score is active: 2.09.

Question: For GGUAUAUCUGAGUUUCUACTT against Sgcz, which z-score is on record?
Answer: Its z-score is inactive: 0.496.

Question: For GGUCAGGUGGCUCAAGAAGTT against Plod3, which z-score is on record?
Answer: The z-score was inactive: 1.34.

Question: With GGAUGACUAAAAUGUUAAGTT against Slc20a2 as the sequence, how does the z-score read?
Answer: Its z-score is inactive: 0.192.

Question: For GGAGAGUUUUCCAGAAUAUTT against Olfr148, which z-score is on record?
Answer: Its z-score is inactive: 1.32.

Question: With CCAUUAAAUGCUGUUGUACTT against Dctn2 as the sequence, how does the z-score read?
Answer: Its z-score is inactive: 0.87.

Question: Which z-score does the source give for CGGACAUGACAAAACUAGATT against Eef1b2 here?
Answer: The z-score was inactive: 0.628.

Question: With GGGCCCAUUUUCAGAAAUGTT against Tagln3 as the sequence, how does the z-score read?
Answer: Its z-score is inactive: 0.0546.

Question: With GGAGAGCUAUGUGGUGCUUTT against Wdr4 as the sequence, how does the z-score read?
Answer: Its z-score is inactive: 0.548.

Question: For GCUGGCAACGUGCUUAUGATT against Stk10, which z-score is on record?
Answer: The z-score was inactive: -0.0184.

Question: Which z-score does the source give for GGAACUUUGCUUUGAUGAUTT against Myo9b here?
Answer: The z-score was inactive: 0.179.

Question: With GCUCUCAGCAUCUUCUAUUTT against Tas2r124 as the sequence, how does the z-score read?
Answer: Its z-score is inactive: -1.01.

Question: For GCUAUCGUGAUAAUCUGGATT against Gxylt2, which z-score is on record?
Answer: The z-score was inactive: -0.113.

Question: For CGAUAUCCCAACAGUAAUATT against Nlrp6, which z-score is on record?
Answer: The z-score was inactive: -0.2.

Question: For GGAAAAUCUAGAAGACAAUTT against Rwdd1, which z-score is on record?
Answer: The z-score was inactive: 1.73.

Question: With GGGUGUAUGAUCCAGUUAUTT against Olfr913 as the sequence, how does the z-score read?
Answer: The z-score was inactive: 0.965.

Question: Which z-score does the source give for GGUCCAUUAUCGAUUUCAUTT against Zfp954 here?
Answer: The z-score was inactive: 0.175.

Question: Which z-score does the source give for GGAAAUGCCCACUAAAUUUTT against Rpl7l1 here?
Answer: The z-score was inactive: 0.456.

Question: For GGCACAAGAAAUUUGAUGATT against Gpc6, which z-score is on record?
Answer: The z-score was inactive: -1.91.

Question: With GCACAGAGCCUAAUCAUUCTT against Oog2 as the sequence, how does the z-score read?
Answer: The z-score was inactive: 0.171.

Question: For CCUCUAGCAUUAGAAACACTT against Pax3, which z-score is on record?
Answer: Its z-score is inactive: -1.35.

Question: For CCCAAUUCUUUCAACCCAGTT against Caln1, which z-score is on record?
Answer: The z-score was inactive: -0.896.

Question: For GCACGGUAUCUCGAAGUCGTT against Spata18, which z-score is on record?
Answer: Its z-score is inactive: -0.785.

Question: Which z-score does the source give for GGGAUUCAUAAGGAGAAAATT against Tspan7 here?
Answer: Its z-score is inactive: -0.662.

Question: For GCCACAAGCAAUAGUCAGATT against Gm867, which z-score is on record?
Answer: Its z-score is inactive: 0.117.

Question: Which z-score does the source give for GGAUCUCAGUGAAGGAGGUTT against Dlk2 here?
Answer: The z-score was inactive: -0.579.

Question: For GCUACUCUUAUUCUACUUCTT against Slc29a3, which z-score is on record?
Answer: The z-score was inactive: 0.145.

Question: For GGUUUUUUUUUCGGCUUACTT against Cnga3, which z-score is on record?
Answer: Its z-score is inactive: -0.301.

Question: For CGCGUAUUUGAGAGAUUCUTT against Ckmt2, which z-score is on record?
Answer: Its z-score is inactive: -0.282.

Question: Which z-score does the source give for CCGUGAAUUUGGAUGAUGGTT against T2 here?
Answer: The z-score was inactive: -1.98.

Question: With GGAAAGCUAAGGCUGUACUTT against Dnal1 as the sequence, how does the z-score read?
Answer: Its z-score is inactive: -0.103.

Question: For GCUGUACGUUGUAUGUUGGTT against Ncbp2, which z-score is on record?
Answer: Its z-score is inactive: -0.167.

Question: For GGUCGAGUAUGCCUACAGUTT against Mlx, which z-score is on record?
Answer: The z-score was inactive: 0.793.

Question: For GCUACCUGUAUUUAUCUCCTT against Adap1, which z-score is on record?
Answer: Its z-score is inactive: 0.353.

Question: With GCCAUCCUUGUGCUAAGAGTT against Ifna4 as the sequence, how does the z-score read?
Answer: The z-score was inactive: -0.604.

Question: With GGACUGAAGAACUUGAAAGTT against Nepn as the sequence, how does the z-score read?
Answer: The z-score was inactive: 1.24.

Question: With “GGACAGUGGAAGGAAUCCATT against 2310033P09Rik” as the sequence, how does the z-score read?
Answer: The z-score was active: -2.91.

Question: Which z-score does the source give for GGUAAACAGAGGUUUUAAGTT against Golga3 here?
Answer: The z-score was inactive: -0.201.

Question: For GGGCAAGCAGUUUUUAUGGTT against Mcph1, which z-score is on record?
Answer: Its z-score is inactive: -1.13.

Question: For CGGACAACAACCUCUGCCATT against Pycrl, which z-score is on record?
Answer: Its z-score is inactive: -0.0622.

Question: With GGUGUUGCAUUCAGAUUUUTT against Gimap3 as the sequence, how does the z-score read?
Answer: The z-score was inactive: 1.69.

Question: With GGCGUAAACAUGGUGUGCATT against Taok3 as the sequence, how does the z-score read?
Answer: Its z-score is inactive: -0.807.

Question: For GGGUAACCACAGAGAGAAUTT against Slc12a4, which z-score is on record?
Answer: The z-score was inactive: -1.38.

Question: With GGGAAUAGAUCUGAACCGUTT against Cpe as the sequence, how does the z-score read?
Answer: Its z-score is inactive: -0.0212.

Question: For GGAACUCACUAACUUCUUGTT against Ccdc116, which z-score is on record?
Answer: Its z-score is inactive: -1.05.

Question: For GGAAAGCAUGUUGUACUUATT against Ggact, which z-score is on record?
Answer: The z-score was inactive: -0.724.

Question: Which z-score does the source give for GGGUCAAGAAGAAUCUUCUTT against Ppp1r14d here?
Answer: Its z-score is inactive: -1.12.

Question: With GGAGAUCAACAUCUAUCAGTT against Septin1 as the sequence, how does the z-score read?
Answer: Its z-score is inactive: 0.0226.

Question: With GGACAAAGAUAAUGGAAAATT against Erlec1 as the sequence, how does the z-score read?
Answer: Its z-score is inactive: 0.353.

Question: With GCUGUACUAUCUUUUUCAUTT against Olfr165 as the sequence, how does the z-score read?
Answer: The z-score was inactive: -0.0549.

Question: With GGUUGUUAGGAAUCGAUCCTT against Rps26 as the sequence, how does the z-score read?
Answer: The z-score was inactive: 0.964.

Question: For GCAUUUAUUUGGUGGUGUUTT against Olfr1245, which z-score is on record?
Answer: Its z-score is inactive: 0.104.

Question: Which z-score does the source give for GGAUCUUAUUUCAGAGCCCTT against Trhr2 here?
Answer: The z-score was inactive: 0.732.

Question: Which z-score does the source give for GGAUACAUCAGUUUGUAGATT against Abhd6 here?
Answer: Its z-score is inactive: -0.789.

Question: With GGUUUACAACCAAAGCUUUTT against Tafa4 as the sequence, how does the z-score read?
Answer: The z-score was inactive: 0.961.

Question: With GGCCUUCUCCAAGGAGAAGTT against Cavin1 as the sequence, how does the z-score read?
Answer: Its z-score is inactive: -1.16.

Question: Which z-score does the source give for GCAUCCGUUCUCCCUUAUGTT against Mrpl4 here?
Answer: The z-score was inactive: 0.461.

Question: For “GGCUACUCGGCCCUCUGUUTT against 4930404N11Rik”, which z-score is on record?
Answer: Its z-score is inactive: -1.67.

Question: Which z-score does the source give for GGACCAGCCGAAAAUUACCTT against Cnksr2 here?
Answer: The z-score was inactive: 0.746.

Question: Which z-score does the source give for GGGCAUCAAUUUAAGAAGCTT against Fam13a here?
Answer: The z-score was inactive: 0.0141.

Question: With GGAUGUGCGUUCUCACAACTT against Suox as the sequence, how does the z-score read?
Answer: Its z-score is inactive: -0.649.

Question: Which z-score does the source give for GGAUAAAAGCAGAUAUGACTT against Hapln1 here?
Answer: Its z-score is inactive: 0.0378.

Question: For GGUAUUUGUUAGGCCACAGTT against Svs4, which z-score is on record?
Answer: The z-score was inactive: 0.108.

Question: With CCCAGCUGAAGUCUCAAAUTT against Cd209c as the sequence, how does the z-score read?
Answer: The z-score was inactive: 1.17.

Question: With CCCAUUAUUGGCACUACAATT against BB014433 as the sequence, how does the z-score read?
Answer: The z-score was inactive: -0.108.
